# Data: the supplement of paper PMC8728848
# The list shows a part of the results.
# How the values were obtained:
# Experiment in all cases: glycan array binding signal (z-score within array); higher = stronger binding
# Conditions in all cases: glycan notation: IUPAC condensed, linker removed
# GalNAc(b1-4)GlcNAc = target: GalNAc(b1-4)GlcNAc
# Outline: (§1)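 The binding signal is a Z-score computed within each array and averaged over linkers. Arrays of the same protein sequence at different concentrations or buffers were also averaged together. Data originate from 3228 arrays in the Consortium for Functional Glycomics database, kept only where the protein sequence was available.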
# [1] = target: GalNAc(b1-4)GlcNAc(b1-2)Man
# Outline: as §1
# [2] = target: GalNAc(b1-4)GlcNAc(b1-2)Man(a1-3)[GalNAc(b1-4)GlcNAc(b1-2)Man(a1-6)]Man(b1-4)GlcNAc(b1-4)GlcNAc
# Outline: as §1
# [3] = target: GalNAc(b1-4)GlcNAc(b1-3)GalNAc(b1-4)GlcNAc
# Outline: as §1
# GalNAc(b1-4)GlcNAc6S = target: GalNAc(b1-4)GlcNAc6S
# Outline: as §1
# GalNAc(b1-6)GalNAc = target: GalNAc(b1-6)GalNAc
# Outline: as §1
# GalNAc3S(b1-4)GlcNAc = target: GalNAc3S(b1-4)GlcNAc
# Outline: as §1
# GalNAc3S(b1-4)GlcNAc3S = target: GalNAc3S(b1-4)GlcNAc3S
# Outline: as §1
# [4] = target: GalNAc3S(b1-4)[Fuc(a1-3)]GlcNAc
# Outline: as §1
# GalNAc4S6S(b1-4)GlcNAc = target: GalNAc4S6S(b1-4)GlcNAc
# Outline: as §1
# GalNAc6S(b1-4)GlcNAc = target: GalNAc6S(b1-4)GlcNAc
# Outline: as §1
# Glc(a1-4)Glc = target: Glc(a1-4)Glc
# Outline: as §1
# [5] = target: Glc(a1-4)Glc(a1-4)Glc(a1-4)Glc
# Outline: as §1
# Glc(a1-6)Glc(a1-6)Glc = target: Glc(a1-6)Glc(a1-6)Glc
# Outline: as §1
# [6] = target: Glc(a1-6)Glc(a1-6)Glc(a1-6)Glc
# Outline: as §1
# Glc(b1-4)Glc = target: Glc(b1-4)Glc
# Outline: as §1
# Glc(b1-6)Glc = target: Glc(b1-6)Glc
# Outline: as §1
# GlcA(b1-3)Gal = target: GlcA(b1-3)Gal
# Outline: as §1
# GlcA(b1-3)GlcNAc = target: GlcA(b1-3)GlcNAc
# Outline: as §1
# GlcA(b1-6)Gal = target: GlcA(b1-6)Gal
# Outline: as §1
# [7] = target: GlcA3S(b1-3)Gal(b1-4)GlcNAc(b1-2)Man
# Outline: as §1
# [8] = target: GlcA3S(b1-3)Gal(b1-4)GlcNAc(b1-3)Gal(b1-4)Glc
# Outline: as §1
# [9] = target: GlcNAc(a1-3)Gal(b1-4)GlcNAc
# Outline: as §1
# [10] = target: GlcNAc(a1-4)Gal(b1-3)GlcNAc
# Outline: as §1
# [11] = target: GlcNAc(a1-4)Gal(b1-4)GalNAc
# Outline: as §1
# [12] = target: GlcNAc(a1-4)Gal(b1-4)GlcNAc
# Outline: as §1
# [13] = target: GlcNAc(a1-4)Gal(b1-4)GlcNAc(b1-3)Gal(b1-4)Glc
# Outline: as §1
# [14] = target: GlcNAc(a1-4)Gal(b1-4)GlcNAc(b1-3)Gal(b1-4)GlcNAc
# Outline: as §1
# [15] = target: GlcNAc(a1-4)Gal(b1-4)GlcNAc(b1-3)Gal(b1-4)GlcNAc(b1-3)Gal(b1-4)GlcNAc
# Outline: as §1
# [16] = target: GlcNAc(a1-4)Gal(b1-4)GlcNAc(b1-3)Gal(b1-4)[Fuc(a1-3)]GlcNAc(b1-3)Gal(b1-4)[Fuc(a1-3)]GlcNAc
# Outline: as §1
# [17] = target: GlcNAc(a1-6)Gal(b1-4)GlcNAc
# Outline: as §1
# [18] = target: GlcNAc(b1-2)Gal(b1-3)GalNAc
# Outline: as §1
# [19] = target: GlcNAc(b1-2)Man(a1-3)[GlcNAc(b1-2)Man(a1-6)]Man(b1-4)GlcNAc(b1-4)GlcNAc
# Outline: as §1
# [20] = target: GlcNAc(b1-2)Man(a1-3)[GlcNAc(b1-2)Man(a1-6)]Man(b1-4)GlcNAc(b1-4)[Fuc(a1-6)]GlcNAc
# Outline: as §1
# [21] = target: GlcNAc(b1-2)Man(a1-3)[GlcNAc(b1-4)][GlcNAc(b1-2)Man(a1-6)]Man(b1-4)GlcNAc(b1-4)GlcNAc
# Outline: as §1
# [22] = target: GlcNAc(b1-2)Man(a1-3)[GlcNAc(b1-4)][GlcNAc(b1-2)Man(a1-6)]Man(b1-4)GlcNAc(b1-4)[Fuc(a1-6)]GlcNAc
# Outline: as §1
# [23] = target: GlcNAc(b1-2)[GlcNAc(b1-4)]Man(a1-3)[GlcNAc(b1-2)Man(a1-6)]Man(b1-4)GlcNAc(b1-4)GlcNAc
# Outline: as §1
# [24] = target: GlcNAc(b1-2)[GlcNAc(b1-4)]Man(a1-3)[GlcNAc(b1-4)][GlcNAc(b1-2)Man(a1-6)]Man(b1-4)GlcNAc(b1-4)GlcNAc
# Outline: as §1
# [25] = target: GlcNAc(b1-2)[GlcNAc(b1-4)]Man(a1-3)[GlcNAc(b1-4)][GlcNAc(b1-2)[GlcNAc(b1-6)]Man(a1-6)]Man(b1-4)GlcNAc(b1-4)GlcNAc
# Outline: as §1
# [26] = target: GlcNAc(b1-2)[GlcNAc(b1-4)]Man(a1-3)[GlcNAc(b1-4)][GlcNAc(b1-2)[GlcNAc(b1-6)]Man(a1-6)]Man(b1-4)GlcNAc(b1-4)[Fuc(a1-6)]GlcNAc
# Outline: as §1
# [27] = target: GlcNAc(b1-2)[GlcNAc(b1-6)]Man(a1-6)[GlcNAc(b1-2)Man(a1-3)]Man(b1-4)GlcNAc(b1-4)GlcNAc
# Outline: as §1
# [28] = target: GlcNAc(b1-2)[GlcNAc(b1-6)]Man(a1-6)[GlcNAc(b1-2)Man(a1-3)]Man(b1-4)GlcNAc(b1-4)[Fuc(a1-6)]GlcNAc
# Outline: as §1
# [29] = target: GlcNAc(b1-2)[GlcNAc(b1-6)]Man(a1-6)[GlcNAc(b1-4)][GlcNAc(b1-2)Man(a1-3)]Man(b1-4)GlcNAc(b1-4)GlcNAc
# Outline: as §1
# GlcNAc(b1-3)Fuc = target: GlcNAc(b1-3)Fuc
# Outline: as §1
# GlcNAc(b1-3)Gal = target: GlcNAc(b1-3)Gal
# Outline: as §1
binder,measurement,setting,value
"Clec12b (Mus musculus), Q149M0 (protein) MSDEVTYATLMLQDSARVRGNQDGNNLRKEGHPAQSSLWRGAALSLMTLCLVLVTGLVTLATMFLQVSNDINSDSEKLSQLQKSIHPQQDNLSESLNSSRKSLTEESLQSQISALLERQEQMATKLCKEFLIHASDHKCNPCPKTWQWYGNSCYYFSINEEKSWSDSRKDCIDKNATLVKIDSTEERDLLQSQLSLTFSFFWLGLSWNSSGRNWLWEDGSFPPPTLFSDKELASFNGSRDCAYFERGNIYASRCSAEIPWICEKTASLVKTEDLD",glycan array binding signal (z-score),GalNAc(b1-4)GlcNAc,0.301
same,glycan array binding signal (z-score),[1],1.9
same,glycan array binding signal (z-score),[2],0.063
same,glycan array binding signal (z-score),[3],0.189
same,glycan array binding signal (z-score),GalNAc(b1-4)GlcNAc6S,-0.159
same,glycan array binding signal (z-score),GalNAc(b1-6)GalNAc,1.14
same,glycan array binding signal (z-score),GalNAc3S(b1-4)GlcNAc,-0.691
same,glycan array binding signal (z-score),GalNAc3S(b1-4)GlcNAc3S,-0.608
same,glycan array binding signal (z-score),[4],-0.662
same,glycan array binding signal (z-score),GalNAc4S6S(b1-4)GlcNAc,-0.653
same,glycan array binding signal (z-score),GalNAc6S(b1-4)GlcNAc,-0.398
same,glycan array binding signal (z-score),Glc(a1-4)Glc,1.09
same,glycan array binding signal (z-score),[5],0.081
same,glycan array binding signal (z-score),Glc(a1-6)Glc(a1-6)Glc,-0.416
same,glycan array binding signal (z-score),[6],-0.465
same,glycan array binding signal (z-score),Glc(b1-4)Glc,0
same,glycan array binding signal (z-score),Glc(b1-6)Glc,-0.441
same,glycan array binding signal (z-score),GlcA(b1-3)Gal,-0.165
same,glycan array binding signal (z-score),GlcA(b1-3)GlcNAc,-0.05
same,glycan array binding signal (z-score),GlcA(b1-6)Gal,-0.585
same,glycan array binding signal (z-score),[7],0.773
same,glycan array binding signal (z-score),[8],0.169
same,glycan array binding signal (z-score),[9],-0.343
same,glycan array binding signal (z-score),[10],-0.587
same,glycan array binding signal (z-score),[11],-0.3
same,glycan array binding signal (z-score),[12],1.28
same,glycan array binding signal (z-score),[13],-0.275
same,glycan array binding signal (z-score),[14],-0.57
same,glycan array binding signal (z-score),[15],-0.56
same,glycan array binding signal (z-score),[16],0.317
same,glycan array binding signal (z-score),[17],-0.463
same,glycan array binding signal (z-score),[18],0.039
same,glycan array binding signal (z-score),[19],-0.704
same,glycan array binding signal (z-score),[20],0.763
same,glycan array binding signal (z-score),[21],-0.757
same,glycan array binding signal (z-score),[22],-0.652
same,glycan array binding signal (z-score),[23],-0.656
same,glycan array binding signal (z-score),[24],0.052
same,glycan array binding signal (z-score),[25],-0.558
same,glycan array binding signal (z-score),[26],-0.799
same,glycan array binding signal (z-score),[27],-0.705
same,glycan array binding signal (z-score),[28],-0.602
same,glycan array binding signal (z-score),[29],-0.828
same,glycan array binding signal (z-score),GlcNAc(b1-3)Fuc,-0.612
same,glycan array binding signal (z-score),GlcNAc(b1-3)Gal,-0.39

# A section from further up, for reference:
binder,measurement,setting,value
"Clec12b (Mus musculus), Q149M0 (protein) MSDEVTYATLMLQDSARVRGNQDGNNLRKEGHPAQSSLWRGAALSLMTLCLVLVTGLVTLATMFLQVSNDINSDSEKLSQLQKSIHPQQDNLSESLNSSRKSLTEESLQSQISALLERQEQMATKLCKEFLIHASDHKCNPCPKTWQWYGNSCYYFSINEEKSWSDSRKDCIDKNATLVKIDSTEERDLLQSQLSLTFSFFWLGLSWNSSGRNWLWEDGSFPPPTLFSDKELASFNGSRDCAYFERGNIYASRCSAEIPWICEKTASLVKTEDLD",glycan array binding signal (z-score),[6],-0.465
same,glycan array binding signal (z-score),Glc(b1-4)Glc,0
